The supplement of paper PMC8426693
Some of the results follow. Most values come without repeats; read them as rough.

What was measured:
Assay in all cases: 1H chemical shift perturbation upon RNA addition; higher = stronger binding
Conditions in all cases: RNA concentration 10 µM; fragment concentration 200 µM; 293 K
SARS-CoV-2 3'-UTR RNA = system: SARS-CoV-2 3'-UTR RNA
SARS-CoV-2 3_SL3base RNA = system: SARS-CoV-2 3_SL3base RNA
SARS-CoV-2 5'-UTR RNA = system: SARS-CoV-2 5'-UTR RNA
SARS-CoV-2 3_SL1+2 RNA = system: SARS-CoV-2 3_SL1+2 RNA

CNCC(=O)Nc1cc(C)ccn1
1H chemical shift perturbation upon RNA addition (SARS-CoV-2 3'-UTR RNA): 7 Hz | 1H chemical shift perturbation upon RNA addition (SARS-CoV-2 3_SL3base RNA): 11 Hz | 1H chemical shift perturbation upon RNA addition (SARS-CoV-2 5'-UTR RNA): 18 Hz

Cc1sc2ncnc(N(C)C)c2c1C
1H chemical shift perturbation upon RNA addition (SARS-CoV-2 3'-UTR RNA): 11 Hz | 1H chemical shift perturbation upon RNA addition (SARS-CoV-2 3_SL3base RNA): 10 Hz | 1H chemical shift perturbation upon RNA addition (SARS-CoV-2 5'-UTR RNA): 6 Hz

c1nc(N2CCC2)c2[nH]cnc2n1
1H chemical shift perturbation upon RNA addition (SARS-CoV-2 3'-UTR RNA): 3 Hz | 1H chemical shift perturbation upon RNA addition (SARS-CoV-2 5'-UTR RNA): 5 Hz

CNCc1ccc(C(F)(F)F)cc1
1H chemical shift perturbation upon RNA addition (SARS-CoV-2 3_SL1+2 RNA): 7 Hz | 1H chemical shift perturbation upon RNA addition (SARS-CoV-2 3_SL3base RNA): 11 Hz

CC(=O)Nc1ccc(-c2csc(N)n2)cc1
1H chemical shift perturbation upon RNA addition (SARS-CoV-2 3'-UTR RNA): 12 Hz | 1H chemical shift perturbation upon RNA addition (SARS-CoV-2 5'-UTR RNA): 7 Hz

CNC(=O)c1nc2ccccc2c(=O)[nH]1
1H chemical shift perturbation upon RNA addition (SARS-CoV-2 3'-UTR RNA): 8 Hz | 1H chemical shift perturbation upon RNA addition (SARS-CoV-2 5'-UTR RNA): 5 Hz

CCNCc1cccc2[nH]ccc12
1H chemical shift perturbation upon RNA addition (SARS-CoV-2 5'-UTR RNA): 10 Hz

c1ccc(CCNc2nc3ccccc3[nH]2)cc1
1H chemical shift perturbation upon RNA addition (SARS-CoV-2 3'-UTR RNA): 7 Hz | 1H chemical shift perturbation upon RNA addition (SARS-CoV-2 5'-UTR RNA): 17 Hz
